In paper PMC5415356:
Results are given in words; binding and its absence hold for the method and conditions named. Binding seen in cells or lysates may run through a third protein. Some results given as binding are weak or reduced against the parent protein; the word gives no strength. Sequences can lack the tags named with a protein.

Protein sequences, listed by entry. Tags and fused reporters are not part of them.
UniProt P46937: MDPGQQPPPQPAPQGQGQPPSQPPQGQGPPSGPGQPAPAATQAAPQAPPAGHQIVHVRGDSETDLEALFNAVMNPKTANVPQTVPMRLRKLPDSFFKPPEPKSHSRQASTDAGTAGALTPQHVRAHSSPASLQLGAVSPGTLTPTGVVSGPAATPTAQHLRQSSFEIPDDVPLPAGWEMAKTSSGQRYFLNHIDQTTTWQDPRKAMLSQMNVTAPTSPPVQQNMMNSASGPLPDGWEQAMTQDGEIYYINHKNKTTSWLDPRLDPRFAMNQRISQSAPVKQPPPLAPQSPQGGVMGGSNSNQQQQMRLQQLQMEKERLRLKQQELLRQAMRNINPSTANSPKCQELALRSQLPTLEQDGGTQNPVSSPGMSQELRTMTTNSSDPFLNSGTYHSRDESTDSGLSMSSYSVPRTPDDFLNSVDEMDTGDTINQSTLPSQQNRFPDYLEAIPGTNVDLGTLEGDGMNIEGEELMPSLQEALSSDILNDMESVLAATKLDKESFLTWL

Target: T1, HA-Amot-p130^S176E (mouse (by the paper's numbering: Ser176 in mouse, Ser175 in human)) (UniProt Q8VHG2)
T1 sequence: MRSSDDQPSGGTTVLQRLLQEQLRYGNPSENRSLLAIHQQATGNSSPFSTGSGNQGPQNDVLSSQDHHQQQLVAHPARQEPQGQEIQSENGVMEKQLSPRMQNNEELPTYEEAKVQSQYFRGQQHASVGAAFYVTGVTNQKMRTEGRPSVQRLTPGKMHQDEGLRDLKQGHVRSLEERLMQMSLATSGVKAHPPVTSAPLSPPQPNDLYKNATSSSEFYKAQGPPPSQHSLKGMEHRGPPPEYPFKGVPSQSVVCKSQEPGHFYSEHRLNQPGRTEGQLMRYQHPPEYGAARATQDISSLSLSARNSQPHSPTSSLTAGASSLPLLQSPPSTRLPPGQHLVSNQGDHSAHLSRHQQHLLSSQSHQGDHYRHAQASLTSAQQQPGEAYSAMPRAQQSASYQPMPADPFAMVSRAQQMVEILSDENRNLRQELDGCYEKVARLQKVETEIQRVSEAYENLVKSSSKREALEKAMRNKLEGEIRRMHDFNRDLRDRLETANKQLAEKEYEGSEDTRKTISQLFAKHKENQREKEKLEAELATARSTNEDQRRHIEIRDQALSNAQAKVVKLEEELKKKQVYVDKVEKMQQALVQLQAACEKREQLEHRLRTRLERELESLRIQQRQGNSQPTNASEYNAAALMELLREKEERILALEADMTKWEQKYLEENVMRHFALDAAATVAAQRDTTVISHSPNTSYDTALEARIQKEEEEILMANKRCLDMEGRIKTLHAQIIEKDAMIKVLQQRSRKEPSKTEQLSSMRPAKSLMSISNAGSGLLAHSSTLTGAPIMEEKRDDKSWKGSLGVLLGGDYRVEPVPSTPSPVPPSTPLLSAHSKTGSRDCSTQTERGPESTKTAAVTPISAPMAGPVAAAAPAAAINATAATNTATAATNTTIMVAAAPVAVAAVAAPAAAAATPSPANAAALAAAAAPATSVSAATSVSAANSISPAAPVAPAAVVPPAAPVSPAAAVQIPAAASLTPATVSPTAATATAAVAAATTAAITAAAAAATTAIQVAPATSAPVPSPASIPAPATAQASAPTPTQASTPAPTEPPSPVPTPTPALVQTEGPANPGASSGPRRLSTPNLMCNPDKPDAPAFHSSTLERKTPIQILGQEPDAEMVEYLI
Assay: co-IP; hSC2λ cells co-transfected with YAP and an Amot allele, fractionated into cytoplasmic, nuclear and plasma membrane fractions; Amot IP of each fraction, anti-YAP immunoblot

## V5-tagged YAP (from UniProt P46937 1-504)
  binding: binds
